This assay deals with T1, Zip2 C-terminal region (residues 499-704), yeast two-hybrid fusion (S. cerevisiae) (UniProt P53061).
T1 sequence: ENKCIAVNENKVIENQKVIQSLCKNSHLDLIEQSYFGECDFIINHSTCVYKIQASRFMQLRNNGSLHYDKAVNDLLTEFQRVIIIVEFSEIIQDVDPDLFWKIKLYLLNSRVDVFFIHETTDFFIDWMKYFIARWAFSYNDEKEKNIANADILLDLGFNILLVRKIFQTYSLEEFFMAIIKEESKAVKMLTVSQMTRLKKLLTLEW
Kind of assay: two-hybrid.

No constants are given. Whether binding was seen depends on the method and setting. Some binding calls cover weakened binding; strength is not graded here. Sequences can lack the tags named with a protein.

B1: Spo16, yeast two-hybrid fusion (protein, UniProt P17122 1-198)
chain: MSEFFWDVQKIQEISNVEEHSVVKCVTVNTSRLISQLNEELQDEESGVNFIVTQLQLLINNVYEKIQKSPGVPAHRSLMINLNFTRLKFSIAYWDILLERSLDLINGPSKTGARYFITEVTPVDRSRYVENNQYFLAFKANQRLTRNSVDMDEFIDFEILIKQIIFDLFKKNGIPDQDFEAILSRFHNLESLVVAFNE
Regarding B1, the binding entry was “binds”.
